Experimental data published in paper PMC10416995.
These are yes or no findings as the source states them, for the method shown. Some results given as binding are weak or reduced against the parent protein; the word gives no strength. For some of these results: Tags and fused reporters may be left off the sequences shown.

Amino acid sequences for entries named in this document (tags omitted). A change or cut given only in a name is not applied to a line headed by its entry. Chains listed by the source or under a name are the forms on record and can include a tag or linker. Residues count along the entry.
UniProt P08514: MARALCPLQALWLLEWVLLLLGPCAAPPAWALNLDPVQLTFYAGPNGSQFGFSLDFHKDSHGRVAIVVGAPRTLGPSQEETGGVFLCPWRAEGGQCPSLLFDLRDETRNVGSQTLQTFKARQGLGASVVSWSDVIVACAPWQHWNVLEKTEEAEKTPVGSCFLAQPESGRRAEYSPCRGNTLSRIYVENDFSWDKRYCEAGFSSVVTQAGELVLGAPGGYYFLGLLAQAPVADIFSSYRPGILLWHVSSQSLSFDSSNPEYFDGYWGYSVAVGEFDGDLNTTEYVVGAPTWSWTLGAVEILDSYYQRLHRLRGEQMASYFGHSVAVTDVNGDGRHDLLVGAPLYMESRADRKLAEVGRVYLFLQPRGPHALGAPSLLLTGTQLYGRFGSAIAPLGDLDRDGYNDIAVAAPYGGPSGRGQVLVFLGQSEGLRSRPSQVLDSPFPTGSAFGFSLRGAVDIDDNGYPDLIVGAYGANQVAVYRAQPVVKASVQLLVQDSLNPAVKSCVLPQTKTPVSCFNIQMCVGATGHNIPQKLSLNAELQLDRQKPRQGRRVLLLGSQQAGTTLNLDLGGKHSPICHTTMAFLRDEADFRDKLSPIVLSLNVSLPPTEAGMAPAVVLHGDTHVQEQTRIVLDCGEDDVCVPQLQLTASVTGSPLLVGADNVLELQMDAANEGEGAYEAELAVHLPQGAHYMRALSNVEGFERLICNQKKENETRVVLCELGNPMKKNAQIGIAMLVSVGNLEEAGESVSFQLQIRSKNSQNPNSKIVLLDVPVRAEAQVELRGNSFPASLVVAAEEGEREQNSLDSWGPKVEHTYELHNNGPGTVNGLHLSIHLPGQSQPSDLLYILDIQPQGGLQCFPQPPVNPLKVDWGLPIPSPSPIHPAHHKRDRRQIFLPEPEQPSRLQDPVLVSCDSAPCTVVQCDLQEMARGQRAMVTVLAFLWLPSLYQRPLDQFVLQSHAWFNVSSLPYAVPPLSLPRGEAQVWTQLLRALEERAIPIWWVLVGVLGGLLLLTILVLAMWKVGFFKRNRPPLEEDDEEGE
sCD40L (residues 118–261), wild type, lacking the KGD motif (P29965, residues 118-261): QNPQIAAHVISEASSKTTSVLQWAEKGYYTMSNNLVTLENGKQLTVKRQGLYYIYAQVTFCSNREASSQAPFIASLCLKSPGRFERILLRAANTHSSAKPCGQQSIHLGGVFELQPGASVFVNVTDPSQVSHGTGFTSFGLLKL
sCD40L (118–261) HIGM1 mutant K143T (P29965, form named): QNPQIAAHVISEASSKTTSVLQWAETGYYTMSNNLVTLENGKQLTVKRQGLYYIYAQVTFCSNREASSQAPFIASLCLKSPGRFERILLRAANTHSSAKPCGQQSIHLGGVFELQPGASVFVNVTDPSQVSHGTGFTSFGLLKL
UniProt Q13444, residues 421-508: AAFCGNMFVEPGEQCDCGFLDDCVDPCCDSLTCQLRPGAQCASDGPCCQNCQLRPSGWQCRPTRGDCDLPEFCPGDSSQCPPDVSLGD

How the values were obtained:
[1] = target: soluble recombinant integrin αIIbβ3 (UniProt P08514); assay: ELISA; as a1 (sCD40L (118–261) immobilised, soluble αIIbβ3, 1 mM Mn2+), except that the disintegrin domain of ADAM15 fused to GST or parent GST was added; both purified
[2] = target: T1, Fibrinogen γ-chain C-terminal peptide (residues 390–411) fused to GST; assay: ELISA; γC390–411 coated on wells (20 µg/mL); soluble αIIbβ3 (1 µg/mL) pre-incubated with sCD40L for 10 min, then 1 h at room temperature in HEPES-Tyrodes buffer with 1 mM CaCl2 in the presence of sCD40L; detected with anti-β3 mAb AV-10; both purified
T1 sequence: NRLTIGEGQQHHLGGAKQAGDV

[3] = target: sCD40L (residues 118–261), wild type, lacking the KGD motif (UniProt P29965); assay: ELISA; as a1 (sCD40L (118–261) immobilised, soluble αIIbβ3, 1 mM Mn2+), except that the disintegrin domain of ADAM15 fused to GST or parent GST was added; both purified
[4] = target: T1, Fibrinogen γ-chain C-terminal peptide (residues 390–411) fused to GST; assay: ELISA; γC390–411 coated on wells; soluble αIIbβ3 with 1 mM Mn2+ instead of 1 mM Ca2+ (positive control, set as 100%); both purified
[5] = target: sCD40L (118–261) HIGM1 mutant K143T (UniProt P29965); assay: ELISA; sCD40L (WT or mutant) coated on wells; soluble αIIbβ3 (1 µg/mL) in HEPES-Tyrodes buffer with 1 mM MnCl2, 1 h at room temperature; bound αIIbβ3 detected with anti-β3 mAb AV-10; both purified
[6] = target: sCD40L (residues 118–261), wild type, lacking the KGD motif (UniProt P29965); assay: as above
[7] = target: recombinant integrin αIIbβ3 on the surface of CHO cells (UniProt P08514); assay: flow cytometry on cells; αIIbβ3-CHO cells incubated with WT sCD40L (0–50 µg/mL) 30 min on ice, then with FITC-labeled γC390–411 30 min at room temperature; 1 mM Ca2+; only the binder purified

## disintegrin domain of ADAM15 (A disintegrin and metalloprotease-15) fused to GST (from UniProt Q13444 421-508) (domain or fragment)
[1]
  binding: binds

## soluble recombinant integrin αIIbβ3 (from UniProt P08514 32-485; P05106 27-497) (receptor)
[2]
  binding: binds
[3]
  binding: binds
[4]
  binding: binds
[5]
  binding: binds
[6]
  binding: binds

## NRLTIGEGQQHHLGGAKQAGDV (FITC-labeled) [FITC-labeled γC390–411 (fibrinogen γ-chain residues 390–411 fused to GST)]
[7]
  binding: binds
